{"source": "ChEMBL document CHEMBL4270539", "about": "“Fibrogenic Disorders in Human Diseases: From Inflammation to Organ Dysfunction” (J Med Chem, 2018)", "target": "T1, Tyrosine-protein kinase JAK3 (Homo sapiens, UniProt P52333)", "T1 sequence (P52333 whole entry)": "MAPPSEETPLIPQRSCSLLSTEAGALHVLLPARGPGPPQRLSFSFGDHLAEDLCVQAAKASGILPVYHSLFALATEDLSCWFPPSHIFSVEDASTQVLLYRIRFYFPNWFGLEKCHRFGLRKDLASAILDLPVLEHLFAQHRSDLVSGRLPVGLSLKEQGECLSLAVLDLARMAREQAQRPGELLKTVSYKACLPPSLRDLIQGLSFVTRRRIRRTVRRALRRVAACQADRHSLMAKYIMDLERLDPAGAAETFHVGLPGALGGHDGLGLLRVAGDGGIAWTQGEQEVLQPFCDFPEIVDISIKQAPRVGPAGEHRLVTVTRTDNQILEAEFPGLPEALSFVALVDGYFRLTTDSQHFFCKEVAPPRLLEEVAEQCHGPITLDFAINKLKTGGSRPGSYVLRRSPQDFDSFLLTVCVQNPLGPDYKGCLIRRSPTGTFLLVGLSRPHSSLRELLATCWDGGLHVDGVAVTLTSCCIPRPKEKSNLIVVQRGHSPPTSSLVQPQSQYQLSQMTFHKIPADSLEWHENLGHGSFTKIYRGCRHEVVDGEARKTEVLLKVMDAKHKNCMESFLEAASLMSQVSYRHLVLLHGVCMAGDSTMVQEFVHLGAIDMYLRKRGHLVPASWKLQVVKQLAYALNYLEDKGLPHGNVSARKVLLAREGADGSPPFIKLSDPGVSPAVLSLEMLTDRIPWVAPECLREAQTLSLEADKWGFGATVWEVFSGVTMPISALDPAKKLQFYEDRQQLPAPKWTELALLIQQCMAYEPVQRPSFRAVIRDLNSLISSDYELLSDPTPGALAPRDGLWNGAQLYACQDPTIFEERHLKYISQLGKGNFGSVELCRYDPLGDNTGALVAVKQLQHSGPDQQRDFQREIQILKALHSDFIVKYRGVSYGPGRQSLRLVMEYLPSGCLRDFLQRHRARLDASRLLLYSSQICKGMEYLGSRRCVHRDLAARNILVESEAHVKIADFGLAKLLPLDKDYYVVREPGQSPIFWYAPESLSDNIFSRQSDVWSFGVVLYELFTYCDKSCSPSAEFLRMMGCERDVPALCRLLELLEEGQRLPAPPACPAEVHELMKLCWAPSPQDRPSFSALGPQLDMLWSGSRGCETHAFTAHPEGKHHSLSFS", "data": [{"smiles": "COc1cc2ncnc(Nc3ccc(O)c(Br)c3)c2cc1OC", "values": [{"measurement": "IC50", "result": 1800, "unit": "nM"}]}]}
